# Data taken from paper PMC3617406 (Molecular pharmaceutics, 2013).
# Tests used:
# human NTCP = biological target: T1, human NTCP (Homo sapiens, UniProt Q14973); type: cell-based; settings: for potency estimated from few doses: read-out: Estimated Ki for NTCP
# T1 sequence (Q14973 1-349): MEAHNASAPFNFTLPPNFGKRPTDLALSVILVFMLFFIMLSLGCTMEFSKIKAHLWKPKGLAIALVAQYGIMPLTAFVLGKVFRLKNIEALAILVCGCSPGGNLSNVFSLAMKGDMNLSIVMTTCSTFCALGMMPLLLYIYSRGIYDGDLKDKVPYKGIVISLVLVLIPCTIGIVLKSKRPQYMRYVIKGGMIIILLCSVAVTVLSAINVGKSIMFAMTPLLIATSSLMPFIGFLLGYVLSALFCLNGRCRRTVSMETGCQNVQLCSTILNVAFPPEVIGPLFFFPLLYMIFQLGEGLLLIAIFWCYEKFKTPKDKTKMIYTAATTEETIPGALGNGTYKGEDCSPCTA
# human ASBT = biological target: T2, human ASBT (Homo sapiens, UniProt Q12908); type: cell-based; settings: for ASBT inhibitor or non-inhibitor: inhibitor = Ki below 300 μM; for potency estimated from few doses: read-out: Estimated Ki for ASBT
# T2 sequence (Q12908 1-348): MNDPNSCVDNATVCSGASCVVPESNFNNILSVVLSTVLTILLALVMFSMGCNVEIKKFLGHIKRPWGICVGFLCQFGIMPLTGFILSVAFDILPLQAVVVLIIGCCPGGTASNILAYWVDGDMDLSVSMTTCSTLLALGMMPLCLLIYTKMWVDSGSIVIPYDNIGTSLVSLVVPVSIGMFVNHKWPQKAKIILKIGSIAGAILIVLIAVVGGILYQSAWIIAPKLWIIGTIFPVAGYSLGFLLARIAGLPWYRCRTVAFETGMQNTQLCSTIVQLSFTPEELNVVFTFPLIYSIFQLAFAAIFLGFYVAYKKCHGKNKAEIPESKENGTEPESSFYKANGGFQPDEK
NTCP inhibitor or non-inhibitor (human NTCP; inhibitor = Ki less than 300 μM),potency estimated from few doses (human NTCP) [µM],ASBT inhibitor or non-inhibitor (human ASBT),potency estimated from few doses (human ASBT) [µM],fold more potent ASBT inhibition than NTCP inhibition (human ASBT; Ki values of Table 4 and 5) [fold],Compound
NTCP inhibitors,112 ± 115,ASBT inhibitors,29.4 ± 0.6,–,Clc1ccc(CSC(Cn2ccnc2)c2ccc(Cl)cc2Cl)cc1 (centres unmarked) [Sulconazole]
–,> 50,ASBT inhibitors,94.7 ± 38,≥ 10,Clc1ccc(CO/N=C(\Cn2ccnc2)c2ccc(Cl)cc2Cl)c(Cl)c1 [Oxiconazole]
